Data as given in PubChem BioAssay AID504808 (Drosophila RNAi Screening Center, 2011)
Purpose: 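Genes whose loss lifts activity of an E2F-responsive reporter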 (primary screen). Cells: Drosophila S2 cells. Knock-down reagent: long dsRNA against Drosophila genes. Measured: 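Dual luciferase plate measurements; E2F-specific signal taken as firefly over Renilla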. Direction: E2F firefly: higher = more E2F reporter activity; Renilla normaliser: higher = more normaliser reporter signal. Active means: 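a knock-down counted as active when the firefly/Renilla E2F signal rose above 50%, a threshold chosen arbitrarily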.
The screen tested about 21,000 reagents; below is a random part of those that have a named target and a result. Of all reagents, 18 (0.084%) were called active. 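Raw counts without plate normalisation, one of two replicates; the ratio scores behind the calls were not deposited.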 Reagents against one gene are numbered here. A plus sign joins genes that one reagent is predicted to hit. Not given: the amount of reagent, the time to read-out.

gene | reagent no. | E2F firefly, rep 1 | Renilla normaliser, rep 1 | Outcome
ppk14 (GeneID 33887) | 1 | 1.62e5 | 5500 | inactive
Cpr66Cb (GeneID 38940) | 1 | 99501 | 3770 | inactive
Dpy-30L1 (GeneID 34480) | 1 | 1.55e5 | 5394 | inactive
Tsp26A (GeneID 33838) | 1 | 1.40e5 | 5344 | inactive
CG17683 (GeneID 3355011) | 1 | 1.34e5 | 6785 | inactive
CG2906 (GeneID 35753) | 1 | 1.48e5 | 4538 | inactive
bonsai (GeneID 37587) | 1 | 1.04e5 | 4758 | inactive
CG34161 (GeneID 5740441) | 1 | 1.60e5 | 7483 | inactive
CG14907 + Mettl4 | 1 | 1.23e5 | 6471 | inactive
CG14907 + Mettl4 | 2 | 1.19e5 | 6475 | inactive
Tre1 (GeneID 140439) | 1 | 90106 | 6283 | inactive
eIF2Bdelta (GeneID 37706) | 1 | 74718 | 3402 | inactive
Inx6 (GeneID 31645) | 1 | 1.24e5 | 3240 | inactive
CG15803 (GeneID 42206) | 1 | 1.54e5 | 8066 | inactive
CG15773 (GeneID 31494) | 1 | 73961 | 4829 | inactive
Elo68beta (GeneID 39245) | 1 | 1.21e5 | 6471 | inactive
CG14370 (GeneID 41659) | 1 | 1.09e5 | 6467 | inactive
CG30259 (GeneID 37606) | 1 | 1.08e5 | 4478 | inactive
CG30259 (GeneID 37606) | 2 | 98046 | 4270 | inactive
Vdup1 (GeneID 38023) | 1 | 99513 | 4317 | inactive
atos (GeneID 36243) | 1 | 1.12e5 | 4231 | inactive
Rrp46 (GeneID 41270) | 1 | 1.33e5 | 6646 | inactive
Ttd14 (GeneID 37119) | 1 | 63178 | 3164 | inactive
Ttd14 (GeneID 37119) | 2 | 1.41e5 | 4766 | inactive
Abi (GeneID 41718) | 1 | 80463 | 4119 | inactive
Lkb1 (GeneID 41673) | 1 | 72333 | 3170 | inactive
PrBP (GeneID 34196) | 1 | 1.47e5 | 4978 | inactive
CG31883 (GeneID 326169) | 1 | 84140 | 2878 | inactive
CG42245 + MEP-1 | 1 | 1.43e5 | 3975 | inactive
CG42245 + MEP-1 | 2 | 78840 | 3618 | inactive
pncr004:X (retired record) (GeneID 3772236) | 1 | 91978 | 2604 | inactive
CG8785 (GeneID 36391) | 1 | 3051 | 187 | inactive
CG15631 (GeneID 33675) | 1 | 1.33e5 | 4834 | inactive
Tl (GeneID 43222) | 1 | 1824 | 988 | inactive
tgy (GeneID 32896) | 1 | 1.37e5 | 4998 | inactive
CG5498 (GeneID 40250) | 1 | 69463 | 3657 | inactive
CG18599 (GeneID 42191) | 1 | 1.36e5 | 6856 | inactive
Pal1 + Pdrg1 | 1 | 1.48e5 | 4820 | inactive
CG8249 (GeneID 36742) | 1 | 1.45e5 | 4835 | inactive
mora (GeneID 42874) | 1 | 1.22e5 | 6143 | inactive
CG30457 (GeneID 36940) | 1 | 1.46e5 | 5058 | inactive
CG1827 (GeneID 35989) | 1 | 3078 | 49 | inactive
CG6340 (GeneID 32482) | 1 | 1.66e5 | 6025 | inactive
wfs1 (GeneID 42679) | 1 | 1.08e5 | 6152 | inactive
Caf1-55 (GeneID 41836) | 1 | 54178 | 5404 | inactive
udd (GeneID 35781) | 1 | 1.61e5 | 5020 | inactive
CG6254 (GeneID 41244) | 1 | 71471 | 3352 | inactive
CG17294 (GeneID 34155) | 1 | 1.10e5 | 3996 | inactive
tmod (GeneID 43633) | 1 | 84603 | 2680 | inactive
tmod (GeneID 43633) | 2 | 1.09e5 | 6727 | inactive
tmod (GeneID 43633) | 3 | 1.30e5 | 6927 | inactive
tmod (GeneID 43633) | 4 | 1850 | 844 | inactive
dpr4 (GeneID 3346160) | 1 | 1.71e5 | 7337 | inactive
dpr4 (GeneID 3346160) | 2 | 1.42e5 | 6150 | inactive
meep (GeneID 261663) | 1 | 1.25e5 | 4419 | inactive
eyg (GeneID 39419) | 1 | 71766 | 3982 | inactive
CG14563 (GeneID 40435) | 1 | 1.35e5 | 6844 | inactive
Sirt6 (GeneID 41254) | 1 | 1.59e5 | 6517 | inactive
CG15635 (GeneID 33665) | 1 | 1.55e5 | 5176 | inactive
Dysb (GeneID 40052) | 1 | 1.70e5 | 7104 | inactive
cort (GeneID 33937) | 1 | 49469 | 3087 | inactive
CG6321 (GeneID 39233) | 1 | 75639 | 3534 | inactive
CG10324 (GeneID 42028) | 1 | 1.02e5 | 5325 | inactive
CG13255 (GeneID 50109) | 1 | 1.37e5 | 7232 | inactive
CG15628 (GeneID 33681) | 1 | 95537 | 4671 | inactive
CG15628 (GeneID 33681) | 2 | 1.36e5 | 4755 | inactive
CG32259 (GeneID 317942) | 1 | 1.29e5 | 3690 | inactive
Gr93c (GeneID 117471) | 1 | 1.38e5 | 6051 | inactive
LPCAT (GeneID 31899) | 1 | 1.24e5 | 5043 | inactive
LPCAT (GeneID 31899) | 2 | 1.17e5 | 5757 | inactive
CG4053 (GeneID 42070) | 1 | 1.29e5 | 6599 | inactive
danr (GeneID 43020) | 1 | 1.16e5 | 6222 | inactive
CG2006 + Spase12 | 1 | 1.13e5 | 6349 | inactive
Lcp65Ag3 + Lcp65Ag2 + Lcp65Ag1 | 1 | 1.09e5 | 4395 | inactive
Lcp65Ag3 + Lcp65Ag2 + Lcp65Ag1 | 2 | 92652 | 3510 | inactive
Sox21a (GeneID 39567) | 1 | 1.66e5 | 7497 | inactive
Cep164 (GeneID 32563) | 1 | 2.49e5 | 7351 | inactive
CG34269 (GeneID 5740713) | 1 | 1.21e5 | 3681 | inactive
Ice1 (GeneID 37701) | 1 | 73448 | 4003 | inactive
CG17050 (retired record) (GeneID 36482) | 1 | 96808 | 3800 | inactive
CG32695 (GeneID 31918) | 1 | 1.14e5 | 5455 | inactive
CG18234 (GeneID 40024) | 1 | 1.78e5 | 7566 | inactive
Phf5a (GeneID 33909) | 1 | 1.41e5 | 5515 | inactive
CG5377 (GeneID 42645) | 1 | 1.38e5 | 6746 | inactive

Just “Renilla normaliser, rep 1” (13 entries from above):
CG15635 (GeneID 33665)	5176
Dysb (GeneID 40052)	7104
cort (GeneID 33937)	3087
CG6321 (GeneID 39233)	3534
CG10324 (GeneID 42028)	5325
CG13255 (GeneID 50109)	7232
CG15628 (GeneID 33681) #1	4671
CG15628 (GeneID 33681) #2	4755
CG32259 (GeneID 317942)	3690
Gr93c (GeneID 117471)	6051
LPCAT (GeneID 31899) #1	5043
LPCAT (GeneID 31899) #2	5757
CG4053 (GeneID 42070)	6599
